These results are taken from the supplement of paper PMC8728848.

Experiment in all cases: glycan array binding signal (z-score within array); higher = stronger binding
What all share (settings): glycan notation: IUPAC condensed, linker removed

Experiment [1] concerns the target Glc(b1-6)Glc. In outline: (§1)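 Glycan array data came from 3228 arrays in the Consortium for Functional Glycomics database, and only arrays with an available protein sequence were kept. Glycan names were put into IUPAC-condensed notation, and columns mapping to the same glycan were averaged. The binding signal is a within-array Z-score, averaged across arrays of one protein sequence run at different concentrations or buffers and across linkers. A negative Z-score can be read as non-binding.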

Experiment [2] concerns the target GlcA(b1-3)Gal. In outline:
as §1

For experiment [3], the target named is GlcA(b1-3)GlcNAc. The method in brief:
as §1

Experiment [4] has as its target GlcA(b1-6)Gal. In outline: as §1
Experiment [5] addresses GlcA3S(b1-3)Gal(b1-4)GlcNAc(b1-2)Man. The method in brief:
as §1

Experiment [6] concerns the target GlcA3S(b1-3)Gal(b1-4)GlcNAc(b1-3)Gal(b1-4)Glc. In outline:
as §1

Experiment [7] concerns the target GlcNAc(a1-3)Gal(b1-4)GlcNAc. In outline:
as §1

In experiment [8] the target is GlcNAc(a1-4)Gal(b1-3)GlcNAc. The method in brief: as §1
Experiment [9] deals with GlcNAc(a1-4)Gal(b1-4)GalNAc. The method in brief: as §1
In experiment [10] the target is GlcNAc(a1-4)Gal(b1-4)GlcNAc. The method in brief: as §1
Experiment [11] concerns the target GlcNAc(a1-4)Gal(b1-4)GlcNAc(b1-3)Gal(b1-4)Glc. In outline:
as §1

For experiment [12], the target named is GlcNAc(a1-4)Gal(b1-4)GlcNAc(b1-3)Gal(b1-4)GlcNAc. The method in brief:
as §1

Experiment [13] deals with GlcNAc(a1-4)Gal(b1-4)GlcNAc(b1-3)Gal(b1-4)GlcNAc(b1-3)Gal(b1-4)GlcNAc. In outline:
as §1

The target of experiment [14] is GlcNAc(a1-4)Gal(b1-4)GlcNAc(b1-3)Gal(b1-4)[Fuc(a1-3)]GlcNAc(b1-3)Gal(b1-4)[Fuc(a1-3)]GlcNAc. In outline: as §1
Experiment [15] concerns the target GlcNAc(a1-6)Gal(b1-4)GlcNAc. The method in brief:
as §1

In experiment [16] the target is GlcNAc(b1-2)Gal(b1-3)GalNAc. The method in brief: as §1
Experiment [17] has as its target GlcNAc(b1-2)Man(a1-3)[GlcNAc(b1-2)Man(a1-6)]Man(b1-4)GlcNAc(b1-4)GlcNAc. In outline:
as §1

The target of experiment [18] is GlcNAc(b1-2)Man(a1-3)[GlcNAc(b1-2)Man(a1-6)]Man(b1-4)GlcNAc(b1-4)[Fuc(a1-6)]GlcNAc. The method in brief: as §1
Experiment [19] concerns the target GlcNAc(b1-2)Man(a1-3)[GlcNAc(b1-4)][GlcNAc(b1-2)Man(a1-6)]Man(b1-4)GlcNAc(b1-4)GlcNAc. In outline: as §1
The target of experiment [20] is GlcNAc(b1-2)Man(a1-3)[GlcNAc(b1-4)][GlcNAc(b1-2)Man(a1-6)]Man(b1-4)GlcNAc(b1-4)[Fuc(a1-6)]GlcNAc. The method in brief:
as §1

Experiment [21] has as its target GlcNAc(b1-2)[GlcNAc(b1-4)]Man(a1-3)[GlcNAc(b1-2)Man(a1-6)]Man(b1-4)GlcNAc(b1-4)GlcNAc. In outline:
as §1

Experiment [22] has as its target GlcNAc(b1-2)[GlcNAc(b1-4)]Man(a1-3)[GlcNAc(b1-4)][GlcNAc(b1-2)Man(a1-6)]Man(b1-4)GlcNAc(b1-4)GlcNAc. In outline:
as §1

The list shows a part of the results.

B1: Clone646PsrP (Streptococcus pneumoniae) (protein)
chain: MDHHHHHHHHASENLYFQGAPAINASLNIAKSETKVYTGEGVDSVYRVPIYYKLKVTNDGSKLTFTYTVTYVNPKTNDLGNISSMRPGYSIYNSGTSTQTMLTLGSDLGKPSGVKNYITDKNGRQVLSYNTSTMTTQGSGYTWGNGAQMNGFFAKKGYGLTSSWTVPITGTDTSFTFTPYAARTDRIGINYFNGGGKVVESSTTSQSLSQSKSLSVSAS
For B1, the “glycan array binding signal (z-score)” value was -0.29 in [1]; -0.942 in [2]; 1.87 in experiment [3]; 0.258 in [4]; -0.511 in experiment [5]; 0.881 in [6]. Further, the “glycan array binding signal (z-score)” value in experiment [7] was -0.637; in [8] it was -0.137; in experiment [9] it was 0.369; in [10] it was -0.792; in experiment [11], -0.847; in experiment [12], -0.82. In addition, the “glycan array binding signal (z-score)” value in experiment [13] is -0.327; in experiment [14] it was -0.283; in experiment [15], 0.813; in experiment [16], -0.013; in experiment [17], -0.479; in [18], -0.521. Moreover, the “glycan array binding signal (z-score)” value in experiment [19] is 0.057; in experiment [20] it was -0.904; in [21], -0.607; in experiment [22] it was -0.698.
